Laboratory results taken from PubChem BioAssay AID1487 (National Center for Advancing Translational Sciences (NCATS), 2009).
This is one part of the list. The main result of the screen is listed elsewhere. These columns were measured beside it and carry no call. Most of these compounds were active or inconclusive in the main read-out, so they are no random draw. The note in brackets gives the kind of curve behind each potency; many fits are weak.

Test: qHTS Assay for Modulators of Lamin A Splicing
Details: HeLa LMNA splicing GFP/RFP minigene ratio, 48 h
In short: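 S3 HeLa cells stably expressing lamin A-EGFP splicing minigene plus DsRed2, 600 cells/well, 48 h compound exposure at 37C. Laser-scanning cytometry; analysed as GFP (500-530 nm)/RFP (575-640 nm) total intensity ratio; 0.5% DMSO vehicle.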

[1] = measured here: RFP viability control channel
[2] = measured here: GFP splicing reporter channel

| Structure (SMILES) | AC50 [1] | AC50 [2] |
| --- | --- | --- |
| Cc1cc2c(=O)n(Cc3ccco3)c(SCC(=O)N3CCCc4ccccc43)nc2s1 | 35.5 µM [rising, single point] | – |
| CC(=O)c1cccc(NC(=O)CSc2nnc3ccc(-c4ccc(Cl)cc4)nn23)c1 | 0.355 µM [rising, full curve, poor fit] | – |
| CN(C)c1ccc(/C=N\NC(=O)c2ccc(Cn3cc(Cl)cn3)cc2)cc1 | 12.6 µM [rising, single point] | 11.2 µM [rising, single point] |
| COc1ccc(CNC(=O)c2cnn3c(C(F)F)cc(C)nc23)cc1OC | 12.6 µM [rising, partial curve] | – |
| Cc1ccc(Cl)cc1NC(=O)c1sc2nc(-c3ccccc3)cn2c1C | – | 0.0158 µM [rising, full curve, poor fit] |
| C=CCOc1ccc(CNCCO)cc1OCC | 35.5 µM [falling, single point] | 35.5 µM [falling, single point] |
| CC(=O)c1ccc(N2CCN(C(=O)Nc3ccc(Cl)cc3)CC2)cc1 | 0.00447 µM [falling, full curve, poor fit] | – |
| C#CCn1c(S(=O)(=O)Cc2ccc(C)cc2)nc(-c2ccccc2)c1-c1ccccc1 | – | 3.55 µM [falling, full curve, poor fit] |
| NC(=O)CSc1nc(N)c2c3c(sc2n1)CCCCC3 | 14.1 µM [rising, single point] | – |
| COc1ccc(-c2nc3scc(CCNS(=O)(=O)c4cc(F)ccc4OC)n3n2)cc1OC | – | 0.02 µM [falling, full curve, poor fit] |
| CCOc1cccc(-c2nnc3n2N=C(c2cc(OC)ccc2OC)CS3)c1 | 2.82 µM [rising, partial curve] | – |
| N#Cc1nc(-c2cccs2)oc1NCc1ccc2c(c1)OCO2 | 20 µM [rising, single point] | – |
| c1ccc2c(c1)ncn2CCC1CCCCC1 | 15.8 µM [rising, single point] | – |
| Cc1noc(C)c1CSc1nc2[nH]ncc2c(=O)n1-c1ccccc1 | – | 7.08 µM [falling, full curve, poor fit] |
| CC(=O)N1N=C(C)CC1c1ccc(O)cc1 (stereo not drawn) | 3.16 µM [rising, full curve, poor fit] | – |
| Cc1oc(C(=O)O)cc1COc1cccc2cccnc12 | 22.4 µM [rising, partial curve, poor fit] | – |
| CCCCNc1nnc(SCC(=O)N2CCN(S(=O)(=O)c3ccc4ccccc4c3)CC2)s1 | 12.6 µM [rising, single point] | – |
| COc1cc2ncnc(Nc3cccc(Cl)c3)c2cc1OC | 11.2 µM [falling, partial curve] | 6.31 µM [falling, partial curve] |
| Cc1c(NS(=O)(=O)c2ccc(N(C)C3CCCCC3)c([N+](=O)[O-])c2)c(=O)n(-c2ccccc2)n1C | 35.5 µM [rising, single point] | 31.6 µM [rising, single point] |
| Cc1cccc(C)c1OCC(=O)Nc1cccc(-c2nnc(-c3ccccc3)o2)c1 | 15.8 µM [rising, single point] | – |

Entries from the list above containing a furan ring, fused or not:

| Structure (SMILES) | AC50 [1] | AC50 [2] |
| --- | --- | --- |
| Cc1cc2c(=O)n(Cc3ccco3)c(SCC(=O)N3CCCc4ccccc43)nc2s1 | 35.5 µM [rising, single point] | – |
| Cc1oc(C(=O)O)cc1COc1cccc2cccnc12 | 22.4 µM [rising, partial curve, poor fit] | – |

More records follow:

| Structure (SMILES) | AC50 [1] | AC50 [2] |
| --- | --- | --- |
| Cc1ccc(N2CC(c3nc4ccccc4[nH]3)CC2=O)c(C)c1 (stereo not drawn) | 35.5 µM [rising, single point] | – |
| CSCC(=O)Nc1nc(-c2ccc3c(c2)OCCO3)cs1 | – | 1.12 µM [rising, partial curve, poor fit] |
| O=c1cc(Nc2ccc3c(c2)OCCO3)[nH]c(=O)n1-c1ccc(Cl)cc1 | 35.5 µM [rising, single point] | – |
| O=C(CN1CCOCC1)Nc1ccc(S(=O)(=O)NC2CCCCC2)cc1 | 12.6 µM [rising, partial curve] | – |
| O=[N+]([O-])c1cccc(C(=S)N2CCN(c3ccccc3)CC2)c1 | 14.1 µM [rising, single point] | – |
| COc1ccccc1NC(=O)N(Cc1ccco1)Cc1cc2cccc(C)c2[nH]c1=O | 14.1 µM [rising, partial curve, poor fit] | – |
| Nc1n[nH]c(-c2cccc([N+](=O)[O-])c2)n1 | 0.891 µM [rising, full curve, poor fit] | – |
| O=C(CCCc1ccccc1)NC1CC(=O)N(c2ccc(Cl)cc2)C1 (stereo not drawn) | 0.0794 µM [falling, partial curve, poor fit] | – |
| O=C(NCCCN1CCOCC1)c1ccc(Sc2cccc(Cl)c2)c([N+](=O)[O-])c1 | 12.6 µM [rising, partial curve, poor fit] | – |
| CC(=O)c1c(C)[nH]c(C(=O)OCC(=O)Nc2ccccc2Cl)c1C | 12.6 µM [rising, partial curve, poor fit] | – |
| Cc1ccc(OCC(=O)Nc2nnc(SCc3cc(=O)c4ccccc4[nH]3)s2)cc1C | 2.51 µM [rising, full curve] | 1.26 µM [rising, full curve, poor fit] |
| CCCCCCCn1c2c(c(=N)c3c1CCC3)CCCC2 | 1.41 µM [rising, partial curve] | 1.41 µM [rising, full curve, poor fit] |
| CCOc1ccc(OCCCCOc2ccccc2C(C)=O)cc1 | 25.1 µM [rising, partial curve] | 35.5 µM [rising, single point] |
| CC1=Nc2cc(C(=O)NC3CCCCC3)ccc2Sc2ccc(Cl)cc21 | 0.282 µM [rising, full curve] | – |
| CC(=O)c1c(C)[nH]c(C(=O)OCC(=O)N2CC(=O)Nc3ccccc32)c1C | – | 5.01 µM [rising, single point] |
| O=S(=O)(c1ccccc1)N1CCC(O)(CSc2ccc(F)cc2)CC1 | – | 0.398 µM [falling, partial curve, poor fit] |
| COC(=O)c1cc(OC)c(OC)cc1NC(=S)N1CCN(C)CC1 | 0.708 µM [rising, single point] | – |
| CCOC(=O)c1c(NC(=O)CSc2nc3ccccc3s2)sc(C)c1C | 35.5 µM [rising, single point] | – |
| Cc1ccc(-c2csc(NC(=O)N3CCOCC3)n2)cc1 | 3.55 µM [falling, partial curve] | – |
| COC(=O)c1ccc(COC(=O)c2[nH]c(C)c(C(C)=O)c2C)o1 | 22.4 µM [rising, single point] | – |

| Structure (SMILES) | AC50 [1] | AC50 [2] |
| --- | --- | --- |
| Cc1cc(Cl)ccc1OCC(=O)NN1C(=O)C2C3C=CC(C3)C2C1=O (stereo not drawn) | 2.24 µM [rising, full curve] | – |
| O=P(c1ccccc1)(c1ccccc1)c1nc(-c2ccc(Cl)cc2)oc1N1CCOCC1 | 35.5 µM [falling, single point] | – |
| O=C(NN1C(=O)C2C(C1=O)C1C=CC2C12CC2)c1ccccc1 (stereo not drawn) | – | 6.31 µM [rising, partial curve, poor fit] |
| COc1cc(C(c2c(C)[nH][nH]c2=O)c2c(C)[nH][nH]c2=O)cc([N+](=O)[O-])c1O | – | 0.0562 µM [rising, full curve, poor fit] |
| Cc1cccc(NC(=O)Cc2coc3ccc4ccccc4c23)n1 | 35.5 µM [rising, single point] | – |
| COc1ccc(CCNc2oc(COc3ccccc3Cl)nc2C#N)cc1OC | 35.5 µM [rising, single point] | – |
| Cc1cc(/C=C\c2ccccc2)nc2ccccc12 | – | 35.5 µM [falling, single point] |
| COc1ccc(-c2[nH]ncc2CN2CCN(C3CCCCC3)C(=O)C2)cc1F | – | 7.94 µM [falling, full curve, poor fit] |
| CCOC(=O)c1c(C)[nH]c(C(=O)COC(=O)c2ccccn2)c1C | – | 6.31 µM [rising, single point] |
| COc1ccc(Br)cc1CN(C)CC(=O)Nc1cc(Cl)cc(Cl)c1 | 15.8 µM [rising, partial curve] | 14.1 µM [rising, single point] |
| CCOC(=O)CN1C(=O)C2(OCCCO2)c2ccccc21 | 15.8 µM [falling, single point] | – |
| O=C(Cc1ccccc1)Nc1ccc(Br)c(Cl)c1 | 25.1 µM [rising, single point] | 20 µM [rising, single point] |
| CCCc1cc(=O)[nH]c(SCCOc2ccc(OCC)cc2)n1 | 15.8 µM [rising, single point] | 14.1 µM [rising, partial curve] |
| O=c1c(-c2cccs2)nc2cnc(N3CCNCC3)nc2n1CCc1ccccc1 | 35.5 µM [falling, partial curve] | 35.5 µM [falling, single point] |
| S=C(NCc1ccco1)Nc1ccccc1 | 1.26 µM [falling, partial curve, poor fit] | 1.26 µM [falling, partial curve, poor fit] |
| Cc1cc(C)nc(SCC(=O)Nc2ccc(S(=O)(=O)NC(C)(C)C)cc2)n1 | 17.8 µM [rising, single point] | 17.8 µM [rising, single point] |
| Clc1cccc(-n2ncc3c(NCCc4ccccc4)ncnc32)c1 | 0.178 µM [falling, full curve, poor fit] | 0.316 µM [falling, full curve, poor fit] |
| COc1cccc(NC(=O)c2cc([N+](=O)[O-])ccc2NC(=O)CNCC2CCCO2)c1 (stereo not drawn) | 1.41 µM [rising, full curve, poor fit] | 3.55 µM [rising, single point] |
